Data taken from patent US20040185568A1, “Sensor storage solution, sensor calibration solution and sensor” (TANITA CORPORATION, priority 2003, published 2004).

Assay: Analysis of the sensor surfaces after immersion
Conditions: sensors immersed in storage solutions 1 and 2

| SMILES | attachment of the compound to the sensor surface |
| --- | --- |
| Cn1sccc1=O [2-methyl-4-isothiazolin-3-one] | attached to the sensors |
| Cn1sc(Cl)cc1=O [5-chloro-2-methyl-4-isothiazolin-3-one] | attached to the sensors |
